These results are taken from patent US6663869B1 (Gryphon Therapeutics, Inc., priority 1993, dated 2003).

Data set [1] can be described thus: solid-phase peptide synthesis. The conditions noted are these: whole synthesis, scale of the general procedure 0.5 mmol per synthesis.
Data set [2] is described as follows: general procedure: Fmoc solid-phase peptide synthesis; Fmoc-Arg(Pmc)-Sasrin. The conditions noted are these: whole synthesis, scale approximately 20 umol.
A short description of data set [3]: general procedure: Fmoc solid-phase peptide synthesis; Sasrin. The conditions noted are these: whole synthesis, scale 0.17 mmol.

As for H-Ser-Gly3-[Lys(H-Ser)]5-Gly-OH, in data set [1], the difficulty met entry is “the standard ninhydrin test showed that acylation was incomplete”.

In the case of NH2OCH2CO-ELGGGPGAGSLQPLALEGSLQKR-OH, the isolated mass in data set [2] is reported as 8 mg.

On to Ser-TCTP, for which the isolated mass in data set [3] turned out to be 90 mg.
